Results published in publication PMC6134127.
These are yes or no findings as the source states them, for the method shown. Binding calls can cover weak binding; strength is not graded here.

Assays:
Experiment in all cases: two-hybrid; Gal4-based Matchmaker system (Clontech), yeast AH109; VPg as bait in pGBKT7, eIF4E/eIF(iso)4E as prey in pGADT7; growth on SD-LW/SD-LWH/SD-LWHA, 30 °C, checked after 3-5 days; in triplicate
[1] = target: viral protein linked to the genome (VPg) of Turnip mosaic virus isolate CDN1 (Turnip mosaic virus isolate CDN1)
[2] = target: viral protein linked to the genome (VPg) of Turnip mosaic virus isolate C4 (Turnip mosaic virus isolate C4)
[3] = target: viral protein linked to the genome (VPg) of Turnip mosaic virus isolate UK1 (Turnip mosaic virus isolate UK1)

Measured: binding

B1: Arabidopsis eIF(iso)4E (LSP) (protein, UniProt O04663 1-198)
chain: MATDDVNEPLPAAAELPATEAEKQPHKLERKWSFWFDNQSKKGAAWGASLRKAYTFDTVEDFWGLHETIFQTSKLTANAEIHLFKAGVEPKWEDPECANGGKWTWVVTANRKEALDKGWLETLMALIGEQFDEADEICGVVASVRPQSKQDKLSLWTRTKSNEAVLMGIGKKWKEILDVTDKITFNNHDDSRRSRFTV
binds: [1] | [2] | [3]
